# This is one part of the list.
# The chains behind the UniProt entries cited, without tags or fusion partners. Where a name states a change or a piece, a line headed by the entry shows the natural chain unless it says otherwise.
# UniProt P33316: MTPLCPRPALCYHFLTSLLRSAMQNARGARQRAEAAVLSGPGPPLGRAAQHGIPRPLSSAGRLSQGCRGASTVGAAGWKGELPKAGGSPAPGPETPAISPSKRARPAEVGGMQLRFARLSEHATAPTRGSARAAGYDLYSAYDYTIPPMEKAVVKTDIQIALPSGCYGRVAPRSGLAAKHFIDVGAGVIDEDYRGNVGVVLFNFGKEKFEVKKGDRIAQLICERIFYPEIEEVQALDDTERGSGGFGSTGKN
# UniProt Q6V1X1: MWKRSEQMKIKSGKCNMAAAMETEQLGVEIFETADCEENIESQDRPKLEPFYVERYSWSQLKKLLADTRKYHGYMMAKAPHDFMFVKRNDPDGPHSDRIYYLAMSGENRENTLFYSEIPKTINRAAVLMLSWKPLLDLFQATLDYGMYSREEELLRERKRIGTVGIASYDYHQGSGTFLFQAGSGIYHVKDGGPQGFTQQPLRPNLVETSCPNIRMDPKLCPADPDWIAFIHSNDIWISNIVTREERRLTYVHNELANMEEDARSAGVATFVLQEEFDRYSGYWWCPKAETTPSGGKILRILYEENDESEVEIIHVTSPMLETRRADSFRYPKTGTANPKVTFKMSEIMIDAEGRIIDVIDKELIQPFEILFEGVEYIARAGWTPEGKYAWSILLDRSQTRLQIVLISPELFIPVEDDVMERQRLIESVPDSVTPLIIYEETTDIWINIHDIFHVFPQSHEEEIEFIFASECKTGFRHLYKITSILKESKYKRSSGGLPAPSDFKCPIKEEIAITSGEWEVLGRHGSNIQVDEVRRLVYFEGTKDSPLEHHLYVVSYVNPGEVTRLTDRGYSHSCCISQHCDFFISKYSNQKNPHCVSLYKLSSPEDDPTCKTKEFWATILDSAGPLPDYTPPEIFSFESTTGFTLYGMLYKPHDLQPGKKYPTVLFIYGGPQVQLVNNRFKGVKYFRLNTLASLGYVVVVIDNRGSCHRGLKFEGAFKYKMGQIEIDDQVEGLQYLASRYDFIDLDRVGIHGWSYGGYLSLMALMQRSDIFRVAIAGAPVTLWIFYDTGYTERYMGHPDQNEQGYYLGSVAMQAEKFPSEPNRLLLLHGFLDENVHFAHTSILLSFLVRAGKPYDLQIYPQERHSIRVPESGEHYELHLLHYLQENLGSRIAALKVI
# UniProt Q8NBA8: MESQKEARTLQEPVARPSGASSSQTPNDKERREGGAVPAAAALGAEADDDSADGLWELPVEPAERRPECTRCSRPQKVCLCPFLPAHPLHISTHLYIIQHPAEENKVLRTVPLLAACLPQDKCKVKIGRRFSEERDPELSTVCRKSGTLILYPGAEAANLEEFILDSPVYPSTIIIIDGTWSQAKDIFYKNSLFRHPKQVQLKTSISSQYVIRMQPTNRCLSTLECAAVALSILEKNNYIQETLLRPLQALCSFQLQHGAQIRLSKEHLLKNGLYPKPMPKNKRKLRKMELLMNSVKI
# UniProt Q9NX74: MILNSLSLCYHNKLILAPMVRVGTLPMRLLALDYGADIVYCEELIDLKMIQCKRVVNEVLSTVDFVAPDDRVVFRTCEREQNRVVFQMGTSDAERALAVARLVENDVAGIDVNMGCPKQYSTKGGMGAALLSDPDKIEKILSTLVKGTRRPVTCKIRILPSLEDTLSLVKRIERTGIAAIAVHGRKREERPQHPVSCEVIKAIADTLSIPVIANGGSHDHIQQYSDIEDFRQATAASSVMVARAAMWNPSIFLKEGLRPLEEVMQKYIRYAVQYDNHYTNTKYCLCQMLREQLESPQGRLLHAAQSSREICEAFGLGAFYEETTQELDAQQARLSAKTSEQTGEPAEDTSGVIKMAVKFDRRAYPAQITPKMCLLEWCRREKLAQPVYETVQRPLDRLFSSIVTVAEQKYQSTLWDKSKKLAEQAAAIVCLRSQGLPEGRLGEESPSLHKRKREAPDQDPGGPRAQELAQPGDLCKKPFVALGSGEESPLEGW
# UniProt Q92785, whole entry, looked up: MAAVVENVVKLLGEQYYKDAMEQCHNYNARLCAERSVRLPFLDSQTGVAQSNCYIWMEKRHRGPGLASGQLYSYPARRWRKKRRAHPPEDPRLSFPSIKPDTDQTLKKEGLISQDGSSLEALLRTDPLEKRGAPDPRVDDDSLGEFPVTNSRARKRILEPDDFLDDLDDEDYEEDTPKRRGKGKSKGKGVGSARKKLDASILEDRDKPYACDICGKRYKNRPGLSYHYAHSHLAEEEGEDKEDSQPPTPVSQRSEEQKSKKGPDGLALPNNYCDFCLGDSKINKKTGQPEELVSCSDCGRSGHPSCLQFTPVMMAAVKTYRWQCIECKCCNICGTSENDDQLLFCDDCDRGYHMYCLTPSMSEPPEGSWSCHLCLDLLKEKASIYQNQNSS
# UniProt Q8NF50: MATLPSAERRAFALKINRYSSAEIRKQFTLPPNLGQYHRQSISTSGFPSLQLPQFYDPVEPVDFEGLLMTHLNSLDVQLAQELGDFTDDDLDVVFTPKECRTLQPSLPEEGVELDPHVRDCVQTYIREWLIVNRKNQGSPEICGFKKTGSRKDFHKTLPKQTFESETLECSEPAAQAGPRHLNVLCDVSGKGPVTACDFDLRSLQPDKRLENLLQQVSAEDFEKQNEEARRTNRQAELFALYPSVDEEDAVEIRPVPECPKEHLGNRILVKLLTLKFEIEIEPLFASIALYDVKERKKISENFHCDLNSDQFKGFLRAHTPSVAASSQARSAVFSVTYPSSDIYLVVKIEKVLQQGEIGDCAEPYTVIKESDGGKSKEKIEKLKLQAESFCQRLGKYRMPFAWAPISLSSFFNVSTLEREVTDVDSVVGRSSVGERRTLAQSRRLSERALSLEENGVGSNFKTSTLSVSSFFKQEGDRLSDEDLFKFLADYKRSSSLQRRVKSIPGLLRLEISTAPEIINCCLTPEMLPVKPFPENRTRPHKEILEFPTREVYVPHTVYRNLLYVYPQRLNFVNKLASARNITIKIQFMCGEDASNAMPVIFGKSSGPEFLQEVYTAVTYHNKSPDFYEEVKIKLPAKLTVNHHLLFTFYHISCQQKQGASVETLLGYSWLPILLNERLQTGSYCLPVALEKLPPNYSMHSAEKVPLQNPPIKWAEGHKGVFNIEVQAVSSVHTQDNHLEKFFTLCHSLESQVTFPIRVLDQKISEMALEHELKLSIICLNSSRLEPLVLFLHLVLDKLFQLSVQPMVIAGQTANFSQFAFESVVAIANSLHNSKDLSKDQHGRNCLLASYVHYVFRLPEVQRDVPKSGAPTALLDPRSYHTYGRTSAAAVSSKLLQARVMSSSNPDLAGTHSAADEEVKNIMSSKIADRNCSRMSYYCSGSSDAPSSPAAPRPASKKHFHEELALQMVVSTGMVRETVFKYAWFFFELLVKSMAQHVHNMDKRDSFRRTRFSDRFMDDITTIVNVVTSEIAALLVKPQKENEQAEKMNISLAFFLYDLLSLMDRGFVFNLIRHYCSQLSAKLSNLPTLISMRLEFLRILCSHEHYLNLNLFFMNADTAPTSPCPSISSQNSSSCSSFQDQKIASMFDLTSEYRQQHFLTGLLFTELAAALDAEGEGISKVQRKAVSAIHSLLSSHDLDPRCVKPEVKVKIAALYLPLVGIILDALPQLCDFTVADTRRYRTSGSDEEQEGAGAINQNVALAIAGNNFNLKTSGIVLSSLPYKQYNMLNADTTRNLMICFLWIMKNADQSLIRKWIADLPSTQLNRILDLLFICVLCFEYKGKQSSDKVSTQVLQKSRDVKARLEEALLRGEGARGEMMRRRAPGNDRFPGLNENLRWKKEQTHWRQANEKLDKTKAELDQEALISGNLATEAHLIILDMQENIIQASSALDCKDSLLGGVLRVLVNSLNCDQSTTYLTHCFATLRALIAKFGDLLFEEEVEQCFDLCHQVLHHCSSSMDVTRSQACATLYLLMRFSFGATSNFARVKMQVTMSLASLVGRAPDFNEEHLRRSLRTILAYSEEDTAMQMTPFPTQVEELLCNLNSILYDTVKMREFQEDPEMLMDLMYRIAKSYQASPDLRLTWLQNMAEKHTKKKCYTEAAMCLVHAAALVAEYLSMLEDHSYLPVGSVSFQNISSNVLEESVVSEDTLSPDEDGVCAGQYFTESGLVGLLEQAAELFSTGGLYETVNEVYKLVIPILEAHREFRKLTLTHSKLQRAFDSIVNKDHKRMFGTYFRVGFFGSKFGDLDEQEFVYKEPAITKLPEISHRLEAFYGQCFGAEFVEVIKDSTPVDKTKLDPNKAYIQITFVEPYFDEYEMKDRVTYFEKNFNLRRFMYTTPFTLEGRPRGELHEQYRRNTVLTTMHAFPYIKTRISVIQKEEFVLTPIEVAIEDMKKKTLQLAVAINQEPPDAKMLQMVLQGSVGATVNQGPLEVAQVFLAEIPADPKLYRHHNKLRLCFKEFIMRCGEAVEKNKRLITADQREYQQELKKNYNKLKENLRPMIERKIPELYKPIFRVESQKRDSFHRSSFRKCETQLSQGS
# UniProt P55039: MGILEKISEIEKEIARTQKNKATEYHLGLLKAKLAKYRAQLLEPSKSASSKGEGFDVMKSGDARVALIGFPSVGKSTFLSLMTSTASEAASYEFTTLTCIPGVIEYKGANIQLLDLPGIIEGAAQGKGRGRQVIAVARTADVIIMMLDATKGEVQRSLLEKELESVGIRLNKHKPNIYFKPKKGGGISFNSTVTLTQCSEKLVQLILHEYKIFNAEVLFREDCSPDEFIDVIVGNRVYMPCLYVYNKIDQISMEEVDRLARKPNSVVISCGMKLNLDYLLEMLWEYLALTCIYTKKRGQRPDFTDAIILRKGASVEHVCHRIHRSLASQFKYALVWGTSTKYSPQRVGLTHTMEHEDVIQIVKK
# UniProt Q96CJ1: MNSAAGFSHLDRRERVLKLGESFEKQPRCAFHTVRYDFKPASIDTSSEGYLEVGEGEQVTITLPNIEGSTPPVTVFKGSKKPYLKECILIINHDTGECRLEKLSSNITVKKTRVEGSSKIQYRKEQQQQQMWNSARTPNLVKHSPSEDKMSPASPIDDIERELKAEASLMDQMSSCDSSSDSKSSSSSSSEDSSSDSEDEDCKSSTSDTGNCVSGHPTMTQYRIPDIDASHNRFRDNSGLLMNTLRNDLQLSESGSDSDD
# UniProt Q7L591: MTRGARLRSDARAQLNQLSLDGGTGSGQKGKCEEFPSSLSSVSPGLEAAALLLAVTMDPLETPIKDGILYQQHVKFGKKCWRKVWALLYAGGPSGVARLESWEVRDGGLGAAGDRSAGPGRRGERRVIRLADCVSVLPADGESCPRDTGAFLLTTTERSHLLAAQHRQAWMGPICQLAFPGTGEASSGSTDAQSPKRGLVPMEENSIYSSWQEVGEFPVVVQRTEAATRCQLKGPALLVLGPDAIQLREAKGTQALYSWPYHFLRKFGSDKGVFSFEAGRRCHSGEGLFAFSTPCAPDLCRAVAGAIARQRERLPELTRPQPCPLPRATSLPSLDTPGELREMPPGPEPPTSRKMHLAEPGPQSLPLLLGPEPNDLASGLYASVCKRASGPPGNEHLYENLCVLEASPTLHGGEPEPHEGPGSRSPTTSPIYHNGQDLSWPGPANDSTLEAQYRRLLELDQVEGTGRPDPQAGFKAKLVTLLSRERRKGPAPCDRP
# UniProt Q13409, whole entry, looked up: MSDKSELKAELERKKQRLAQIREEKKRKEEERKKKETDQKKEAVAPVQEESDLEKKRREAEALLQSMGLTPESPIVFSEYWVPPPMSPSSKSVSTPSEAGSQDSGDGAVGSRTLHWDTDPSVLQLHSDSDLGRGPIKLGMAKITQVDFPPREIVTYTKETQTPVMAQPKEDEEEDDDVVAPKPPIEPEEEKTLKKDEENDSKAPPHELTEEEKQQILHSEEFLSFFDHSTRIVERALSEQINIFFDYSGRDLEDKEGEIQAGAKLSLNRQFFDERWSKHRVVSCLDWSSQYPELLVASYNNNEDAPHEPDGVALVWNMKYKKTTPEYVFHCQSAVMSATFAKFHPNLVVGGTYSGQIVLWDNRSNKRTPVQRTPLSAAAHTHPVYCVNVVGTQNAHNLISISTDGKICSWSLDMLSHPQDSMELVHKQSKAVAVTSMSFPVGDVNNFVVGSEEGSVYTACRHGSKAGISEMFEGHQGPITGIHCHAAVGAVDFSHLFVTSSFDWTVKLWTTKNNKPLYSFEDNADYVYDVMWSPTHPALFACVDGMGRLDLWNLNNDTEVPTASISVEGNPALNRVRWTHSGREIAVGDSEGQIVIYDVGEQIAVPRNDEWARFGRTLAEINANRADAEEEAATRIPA
# Compound: Cc1cc(ccc1-c1ccccc1)C(=O)N1CCCN(CC1)C(=O)CCl [compound 10]
# Assay: probe-labelled cysteine peptide fold change vs DMSO (competition) (log2 fold change); higher = less target engagement (more negative = stronger competition)
# Conditions: 10 µM; THP-1; incubation time: 4 h
# 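Also: competitive profiling in live THP-1 cells: cysteine peptides tagged with an iodoacetamide desthiobiotin (IA-DTB) probe, intensity after compound treatment relative to DMSO-treated cells.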
row,Target,probe-labelled cysteine peptide fold change
1,DYNC1H1_Q14204_4216_SACDTVDTWLDDTAK (UniProt Q14204),0.0448
2,DUSP27_Q5VZP5_81_ADAECPGMLESAEQLLVEDLYNR (UniProt Q5VZP5),-0.28
3,DUT_P33316-2_3_PCSEETPAISPSK (UniProt P33316),-0.335
4,DPP8_Q6V1X1_221_LCPADPDWIAFIHSNDIWISNIVTR (UniProt Q6V1X1),-0.0227
5,DTWD2_Q8NBA8_143_FSEERDPELSTVCR (UniProt Q8NBA8),-0.408
6,DSC2_Q02487_797_GGHQTSESCR (UniProt Q02487),-0.0883
7,DUS2_Q9NX74_373_MCLLEWCR (UniProt Q9NX74),0.0193
8,DPF2_Q92785_298_TGQPEELVSCSDCGR (UniProt Q92785),0.307
9,DUS3L_Q96G46_315_LYLAPLTTCGNLPFRR (UniProt Q96G46),-0.324
10,DOCK8_Q8NF50_143_NQGSPEICGFK (UniProt Q8NF50),-0.481
11,DOCK8_Q8NF50_391_LQAESFCQR (UniProt Q8NF50),-0.117
12,DRG2_P55039_319_KGASVEHVCHR (UniProt P55039),0.128
13,EAF2_Q96CJ1_87+98_ECILIINHDTGECR (UniProt Q96CJ1),0.435
14,DOK3_Q7L591_323_ERLPELTRPQPCPLPR (UniProt Q7L591),-0.21
15,DYNC1H1_Q14204_867_SLETCMYDHK (UniProt Q14204),0.0161
16,DYNC1I2_Q13409_331_TTPEYVFHCQSAVMSATFAK (UniProt Q13409),0.091

# In a second layout: results already given.
row	Target	probe-labelled cysteine peptide fold change
3	DUT_P33316-2_3_PCSEETPAISPSK (UniProt P33316)	-0.335
4	DPP8_Q6V1X1_221_LCPADPDWIAFIHSNDIWISNIVTR (UniProt Q6V1X1)	-0.0227
